Measurements taken from patent US20190316211A1, “ONCOGENIC ALTERNATIVE SPLICING SWITCH OF PACE4 IN CANCER” (SOCIETE DE COMMERCIALISATION DES PRODUITS DE LA RECHERCHE …, priority 2016, published 2019).
Results are given in words; binding and its absence hold for the method and conditions named. Binding can be weak; no strength is given. Sequences can lack the tags named with a protein.

Target: Vps13
Assay: V5 immunoprecipitation from HEK293-FT lysates, SWATH-MS

- binding: binds
B1: V5-tagged PACE4-FL (enzyme, not shown: small tags and cut ends)
chain: QVRSDPQALYFNDPIWSNMWYLHCGDKNSRCRSEMNVQAAWKRGYTGKNVVVTILDDGIERNHPDLAPNYDSYASYDVNGNDYDPSPRYDASNENKHGTRCAGEVAASANNSYCIVGIAYNAKIGGIRMLDGDVTDVVEAKSLGIRPNYIDIYSASWGPDDDGKTVDGPGRLAKQAFEYGIKKGRQGLGSIFVWASGNGGREGDYCSCDGYTNSIYTISVSSATENGYKPWYLEECASTLATTYSSGAFYERKIVTTDLRQRCTDGHTGTSVSAPMVAGIIALALEANSQLTWRDVQHLLVKTSRPAHLKASDWKVNGAGHKVSHFYGFGLVDAEALVVEAKKWTAVPSQHMCVAASDKRPRSIPLVQVLRTTALTSACAEHSDQRVVYLEHVVVRTSISHPRRGDLQIYLVSPSGTKSQLLAKRLLDLSNEGFTNWEFMTVHCWGEKAEGQWTLEIQDLPSQVRNPEKQGKLKEWSLILYGTAEHPYHTFSAHQSRSRMLELSAPELEPPKAALSPSQVEVPEDEEDYTAQSTPGSANILQTSVCHPECGDKGCDGPNADQCLNCVHFSLGSVKTSRKCVSVCPLGYFGDTAARRCRRCHKGCETCSSRAATQCLSCRRGFYHHQEMNTCVTLCPAGFYADESQKNCLKCHPSCKKCVDEPEKCTVCKEGFSLARGSCIPDCEPGTYFDSELIRCGECHHTCGTCVGPGREECIHCAKNFHFHDWKCVPACGEGFYPEEMPGLPHKVCRRCDENCLSCAGSSRNCSRCKTGFTQLGTSCITNHTCSNADETFCEMVKSNRLCERKLFIQFCCRTCLLAG
